In US11628221B2 (priority 2017, dated 2023):
HELM strings list residues between dots; [ac] is acetyl, [am] amide, other brackets name non-standard units.

Test: general procedure: hybrid (solid and solution phase) peptide synthesis; Wang resin; 2-chloro-trityl chloride resin; PyBOP; HATU; OSu ester (EDC/HOSu)
Settings: for conjugation yield: conjugation step

Row | Substance | conjugation yield [%] | other results
1 | Fm-GABA←-mGly-Ala-Ser-Chg-Gln-Ser-Leu-OH | – | outcome (whole synthesis): could not be achieved following standard automated peptide synthesis methods
2 | Fm-GABA←mGly-Ala-Ser-Chg-OH | – | step yield (coupling step): 56%
3 | Glutaryl-Ser-Ala-Ser-Chg-Gln-Ser-Leu-Dox | 34 | –
4 | PEPTIDE1{[GABA-mGly].A.S.[Chg].Q.S.L.[Dox-3N]}$$$$V2.0 | 28 | –
5 | PEPTIDE1{[GABA-mGly].A.S.[Chg].Q.[NHOCH2CMe2CO].[Dox-14O]}$$$$V2.0 | 18 | –
